Test results from the supplement of paper PMC10849652.
The other results are listed elsewhere or left out.

Protein sequences, listed by entry. Tags and fused reporters are not part of them. Lines headed by an entry give the natural chain unless they say otherwise; changes in a name come on top.
UniProt P30084: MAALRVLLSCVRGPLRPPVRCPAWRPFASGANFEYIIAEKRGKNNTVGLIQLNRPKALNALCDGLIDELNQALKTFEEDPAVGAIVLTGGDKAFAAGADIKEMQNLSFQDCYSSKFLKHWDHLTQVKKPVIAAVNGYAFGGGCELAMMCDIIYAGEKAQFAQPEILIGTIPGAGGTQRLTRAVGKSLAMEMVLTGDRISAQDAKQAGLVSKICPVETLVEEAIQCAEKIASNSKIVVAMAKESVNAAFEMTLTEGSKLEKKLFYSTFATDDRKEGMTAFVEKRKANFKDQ
UniProt Q56P03: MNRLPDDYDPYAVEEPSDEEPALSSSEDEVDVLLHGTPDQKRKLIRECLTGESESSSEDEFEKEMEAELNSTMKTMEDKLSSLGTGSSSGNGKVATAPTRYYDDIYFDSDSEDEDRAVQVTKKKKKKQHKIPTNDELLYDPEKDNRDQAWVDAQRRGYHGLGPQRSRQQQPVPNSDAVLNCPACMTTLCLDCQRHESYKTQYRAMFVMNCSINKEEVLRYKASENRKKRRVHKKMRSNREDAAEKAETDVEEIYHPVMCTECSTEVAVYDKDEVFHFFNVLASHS
UniProt Q96C19: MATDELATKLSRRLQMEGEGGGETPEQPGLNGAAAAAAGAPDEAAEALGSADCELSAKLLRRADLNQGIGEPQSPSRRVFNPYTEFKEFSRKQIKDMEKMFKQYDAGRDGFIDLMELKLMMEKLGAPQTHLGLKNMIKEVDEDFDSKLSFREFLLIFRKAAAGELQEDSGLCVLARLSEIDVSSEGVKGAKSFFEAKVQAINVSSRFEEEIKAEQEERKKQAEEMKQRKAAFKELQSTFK
UniProt Q9NP97, whole entry, looked up: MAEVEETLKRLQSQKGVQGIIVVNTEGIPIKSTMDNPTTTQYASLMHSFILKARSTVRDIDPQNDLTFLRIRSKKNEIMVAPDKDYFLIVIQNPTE
UniProt Q9H410: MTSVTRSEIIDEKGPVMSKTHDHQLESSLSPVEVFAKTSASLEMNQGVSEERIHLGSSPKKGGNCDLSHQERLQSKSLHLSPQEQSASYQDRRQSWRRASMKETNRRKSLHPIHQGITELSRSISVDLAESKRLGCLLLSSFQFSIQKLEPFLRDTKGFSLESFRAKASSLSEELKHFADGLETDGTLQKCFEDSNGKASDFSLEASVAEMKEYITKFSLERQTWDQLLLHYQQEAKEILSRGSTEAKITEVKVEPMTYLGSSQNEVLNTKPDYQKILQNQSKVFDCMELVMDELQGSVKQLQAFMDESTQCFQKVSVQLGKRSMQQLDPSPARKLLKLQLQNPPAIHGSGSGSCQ
UniProt Q8NDI1: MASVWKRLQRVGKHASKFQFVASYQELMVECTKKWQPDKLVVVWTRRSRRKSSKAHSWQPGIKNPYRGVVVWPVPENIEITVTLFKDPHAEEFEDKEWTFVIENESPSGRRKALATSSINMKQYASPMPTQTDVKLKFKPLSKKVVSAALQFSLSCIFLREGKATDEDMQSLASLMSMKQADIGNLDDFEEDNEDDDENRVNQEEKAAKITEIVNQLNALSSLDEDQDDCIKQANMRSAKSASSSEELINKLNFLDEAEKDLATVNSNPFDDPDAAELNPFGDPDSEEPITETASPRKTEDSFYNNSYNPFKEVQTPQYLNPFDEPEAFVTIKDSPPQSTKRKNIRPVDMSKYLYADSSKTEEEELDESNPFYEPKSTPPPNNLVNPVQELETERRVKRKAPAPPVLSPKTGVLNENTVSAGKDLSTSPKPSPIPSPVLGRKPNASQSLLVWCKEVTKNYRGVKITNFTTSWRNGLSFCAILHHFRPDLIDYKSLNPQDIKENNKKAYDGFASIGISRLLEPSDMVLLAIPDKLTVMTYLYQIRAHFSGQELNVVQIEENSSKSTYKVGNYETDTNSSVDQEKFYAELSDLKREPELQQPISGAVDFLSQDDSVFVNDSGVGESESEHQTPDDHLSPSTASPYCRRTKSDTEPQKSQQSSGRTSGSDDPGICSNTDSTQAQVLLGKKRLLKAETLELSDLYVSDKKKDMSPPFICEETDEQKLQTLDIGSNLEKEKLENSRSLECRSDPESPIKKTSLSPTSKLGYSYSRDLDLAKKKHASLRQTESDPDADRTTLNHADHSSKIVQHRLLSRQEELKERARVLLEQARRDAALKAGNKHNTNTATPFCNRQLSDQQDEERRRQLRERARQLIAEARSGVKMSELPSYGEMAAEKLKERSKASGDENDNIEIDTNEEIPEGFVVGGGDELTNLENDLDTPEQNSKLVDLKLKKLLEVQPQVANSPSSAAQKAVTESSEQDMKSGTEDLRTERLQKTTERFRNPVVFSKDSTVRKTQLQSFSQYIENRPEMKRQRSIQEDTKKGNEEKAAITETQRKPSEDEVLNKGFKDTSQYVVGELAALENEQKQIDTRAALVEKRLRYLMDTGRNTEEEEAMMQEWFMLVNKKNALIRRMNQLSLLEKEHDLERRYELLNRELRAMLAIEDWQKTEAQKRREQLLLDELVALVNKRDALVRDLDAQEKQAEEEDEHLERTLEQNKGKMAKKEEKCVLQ
UniProt O77932: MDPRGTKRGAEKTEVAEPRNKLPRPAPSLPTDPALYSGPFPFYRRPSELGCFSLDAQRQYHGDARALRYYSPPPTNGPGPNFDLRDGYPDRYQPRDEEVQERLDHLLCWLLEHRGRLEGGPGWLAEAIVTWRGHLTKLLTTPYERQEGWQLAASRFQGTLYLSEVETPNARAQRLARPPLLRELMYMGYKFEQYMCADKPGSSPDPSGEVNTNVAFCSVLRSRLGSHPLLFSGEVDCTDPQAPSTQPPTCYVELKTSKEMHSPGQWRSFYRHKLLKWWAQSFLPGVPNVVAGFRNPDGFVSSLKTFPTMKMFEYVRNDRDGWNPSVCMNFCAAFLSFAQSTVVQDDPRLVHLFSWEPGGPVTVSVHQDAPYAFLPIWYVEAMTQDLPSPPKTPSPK
UniProt Q7Z2Z2: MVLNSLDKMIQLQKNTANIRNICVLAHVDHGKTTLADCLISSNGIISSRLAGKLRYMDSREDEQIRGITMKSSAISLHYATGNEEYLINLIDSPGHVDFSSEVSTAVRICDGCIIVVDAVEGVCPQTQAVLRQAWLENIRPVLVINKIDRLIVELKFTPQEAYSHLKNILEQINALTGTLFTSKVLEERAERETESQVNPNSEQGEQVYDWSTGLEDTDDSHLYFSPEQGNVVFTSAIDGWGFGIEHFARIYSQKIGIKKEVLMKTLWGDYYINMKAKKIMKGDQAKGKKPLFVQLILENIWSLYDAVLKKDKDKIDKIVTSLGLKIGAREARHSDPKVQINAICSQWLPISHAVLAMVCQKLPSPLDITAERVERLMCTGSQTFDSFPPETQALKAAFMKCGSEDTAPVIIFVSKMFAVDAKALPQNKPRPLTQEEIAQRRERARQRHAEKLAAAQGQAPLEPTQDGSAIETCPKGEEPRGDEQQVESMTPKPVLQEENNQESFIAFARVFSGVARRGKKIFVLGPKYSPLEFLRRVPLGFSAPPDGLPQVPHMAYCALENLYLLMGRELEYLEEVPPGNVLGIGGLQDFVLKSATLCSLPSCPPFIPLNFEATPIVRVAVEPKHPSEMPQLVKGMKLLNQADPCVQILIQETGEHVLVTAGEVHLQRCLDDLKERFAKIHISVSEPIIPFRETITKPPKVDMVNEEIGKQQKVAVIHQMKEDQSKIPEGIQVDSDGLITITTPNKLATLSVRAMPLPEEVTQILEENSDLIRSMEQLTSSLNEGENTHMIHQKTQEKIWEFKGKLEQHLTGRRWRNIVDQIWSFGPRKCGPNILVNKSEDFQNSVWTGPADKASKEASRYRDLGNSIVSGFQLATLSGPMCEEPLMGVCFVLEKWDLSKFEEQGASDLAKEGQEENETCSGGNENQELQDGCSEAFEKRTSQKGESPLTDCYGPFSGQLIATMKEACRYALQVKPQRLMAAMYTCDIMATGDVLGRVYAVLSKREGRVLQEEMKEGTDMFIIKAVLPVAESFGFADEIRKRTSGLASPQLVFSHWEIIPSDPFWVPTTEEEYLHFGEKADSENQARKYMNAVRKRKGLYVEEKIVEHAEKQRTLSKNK
UniProt Q15075: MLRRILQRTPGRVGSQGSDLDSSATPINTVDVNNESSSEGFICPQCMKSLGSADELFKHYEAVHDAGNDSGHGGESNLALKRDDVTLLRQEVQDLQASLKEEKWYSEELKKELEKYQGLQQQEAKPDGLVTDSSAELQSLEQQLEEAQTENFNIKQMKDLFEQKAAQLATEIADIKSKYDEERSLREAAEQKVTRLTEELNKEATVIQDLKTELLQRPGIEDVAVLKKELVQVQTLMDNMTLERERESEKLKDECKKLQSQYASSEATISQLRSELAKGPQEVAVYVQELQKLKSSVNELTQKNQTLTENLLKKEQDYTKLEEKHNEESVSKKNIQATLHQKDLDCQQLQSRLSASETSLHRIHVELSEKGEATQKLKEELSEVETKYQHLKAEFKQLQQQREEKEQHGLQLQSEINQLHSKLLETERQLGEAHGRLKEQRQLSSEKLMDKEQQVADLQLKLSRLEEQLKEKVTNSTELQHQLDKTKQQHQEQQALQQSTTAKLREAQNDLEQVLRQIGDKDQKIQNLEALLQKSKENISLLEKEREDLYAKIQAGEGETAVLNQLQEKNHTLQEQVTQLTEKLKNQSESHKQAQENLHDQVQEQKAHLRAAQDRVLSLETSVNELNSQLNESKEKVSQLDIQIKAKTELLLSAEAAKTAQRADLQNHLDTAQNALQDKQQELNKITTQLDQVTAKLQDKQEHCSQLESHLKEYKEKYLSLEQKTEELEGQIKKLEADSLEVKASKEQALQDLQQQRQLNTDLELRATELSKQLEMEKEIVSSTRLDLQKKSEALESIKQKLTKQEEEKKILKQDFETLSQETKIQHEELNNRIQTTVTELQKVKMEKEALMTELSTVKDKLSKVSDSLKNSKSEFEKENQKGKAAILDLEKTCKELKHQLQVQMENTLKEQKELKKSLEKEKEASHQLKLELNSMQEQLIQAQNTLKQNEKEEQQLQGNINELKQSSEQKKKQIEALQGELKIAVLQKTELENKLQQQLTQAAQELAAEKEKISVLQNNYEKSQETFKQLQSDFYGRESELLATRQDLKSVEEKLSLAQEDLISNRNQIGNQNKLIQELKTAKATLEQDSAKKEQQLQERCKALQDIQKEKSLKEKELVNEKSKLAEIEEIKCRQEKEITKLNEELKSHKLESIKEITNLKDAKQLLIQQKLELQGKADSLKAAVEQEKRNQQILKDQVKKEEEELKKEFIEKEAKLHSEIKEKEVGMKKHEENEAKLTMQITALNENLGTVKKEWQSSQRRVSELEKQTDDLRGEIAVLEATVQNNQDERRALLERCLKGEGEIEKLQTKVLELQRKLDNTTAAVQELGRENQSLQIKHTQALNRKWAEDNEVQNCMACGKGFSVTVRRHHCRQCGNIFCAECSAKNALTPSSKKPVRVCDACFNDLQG
UniProt Q16610: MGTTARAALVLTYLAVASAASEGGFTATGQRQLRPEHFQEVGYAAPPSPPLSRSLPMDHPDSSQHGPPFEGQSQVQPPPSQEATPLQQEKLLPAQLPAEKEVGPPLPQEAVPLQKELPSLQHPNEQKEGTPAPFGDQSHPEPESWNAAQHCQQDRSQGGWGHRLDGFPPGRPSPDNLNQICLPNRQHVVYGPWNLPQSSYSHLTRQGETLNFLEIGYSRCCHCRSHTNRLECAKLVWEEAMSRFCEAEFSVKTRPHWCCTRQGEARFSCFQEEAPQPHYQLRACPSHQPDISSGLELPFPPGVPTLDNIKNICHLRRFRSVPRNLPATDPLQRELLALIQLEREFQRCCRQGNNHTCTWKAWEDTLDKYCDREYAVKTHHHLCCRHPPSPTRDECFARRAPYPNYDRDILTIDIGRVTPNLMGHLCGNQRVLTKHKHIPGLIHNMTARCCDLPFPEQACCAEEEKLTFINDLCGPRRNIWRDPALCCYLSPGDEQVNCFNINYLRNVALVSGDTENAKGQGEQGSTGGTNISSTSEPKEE
UniProt O43324: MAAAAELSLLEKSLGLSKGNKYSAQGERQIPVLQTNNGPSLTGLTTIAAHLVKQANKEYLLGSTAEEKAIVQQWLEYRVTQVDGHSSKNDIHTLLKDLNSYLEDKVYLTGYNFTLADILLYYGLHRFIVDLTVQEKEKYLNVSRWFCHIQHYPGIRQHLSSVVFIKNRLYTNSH
UniProt O75521: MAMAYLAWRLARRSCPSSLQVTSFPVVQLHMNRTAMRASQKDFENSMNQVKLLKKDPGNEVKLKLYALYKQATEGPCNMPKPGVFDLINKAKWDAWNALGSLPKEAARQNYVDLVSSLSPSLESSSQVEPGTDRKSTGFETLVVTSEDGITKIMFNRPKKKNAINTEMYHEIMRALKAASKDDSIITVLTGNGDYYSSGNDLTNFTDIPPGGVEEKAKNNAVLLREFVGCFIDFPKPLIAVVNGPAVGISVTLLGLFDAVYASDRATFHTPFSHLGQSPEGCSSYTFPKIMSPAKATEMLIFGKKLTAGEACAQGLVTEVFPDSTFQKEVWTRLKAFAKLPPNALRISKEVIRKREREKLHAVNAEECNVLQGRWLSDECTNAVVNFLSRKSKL

What was measured:
Experiment in all cases: log2 fold change, soluble protein after heating vs DMSO (PISA); higher = thermal stabilisation; K562 lysate, 10 uM; active = over 0.2 and 3.5 SD of the protein, either way, in both replicates (recomputed)
lapatinib = compound: CS(=O)(=O)CCNCc1ccc(-c2ccc3ncnc(Nc4ccc(OCc5cccc(F)c5)c(Cl)c4)c3c2)o1 [lapatinib]
Procedure, shortened: (§1)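 Log-two fold change in thermal stability relative to solvent controls is reported from duplicates. For each sample, crude K562 extract from dounce-homogenised pellets in PBS pH 7.4 with 1 mM MgCl2, at 1 mg/mL protein, was treated with 10 μM compound for 30 min. Aliquots heated for 3 min across 48°C-58°C were pooled, brought to 0.5% NP-40 at 4°C and cleared at 21,000xg for 90 min. The supernatant was quantified by TMTpro 16plex LC-MS/MS with channel sums equalised.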

pictilisib = compound: CS(=O)(=O)N1CCN(Cc2cc3nc(-c4cccc5[nH]ncc45)nc(N4CCOCC4)c3s2)CC1 [pictilisib]
Procedure, shortened: as §1

crizotinib = compound: C[C@@H](Oc1cc(-c2cnn(C3CCNCC3)c2)cnc1N)c1c(Cl)ccc(F)c1Cl [crizotinib]
Procedure, shortened: as §1

[1] = compound: C[C@H](C1=CC=C(C=C1)C(=O)NC2=C3C=CNC3=NC=C2)N
Procedure, shortened: as §1

duvelisib = compound: C[C@H](Nc1ncnc2nc[nH]c12)c1cc2cccc(Cl)c2c(=O)n1-c1ccccc1 [duvelisib]
Procedure, shortened: as §1

gandotinib = compound: Cc1cc(Nc2cc(CN3CCOCC3)c3nc(C)c(Cc4ccc(Cl)cc4F)n3n2)n[nH]1 [gandotinib]
Procedure, shortened: as §1

tozasertib = compound: Cc1cc(Nc2cc(N3CCN(C)CC3)nc(Sc3ccc(NC(=O)C4CC4)cc3)n2)n[nH]1 [tozasertib]
Procedure, shortened: as §1

doramapimod = compound: Cc1ccc(-n2nc(C(C)(C)C)cc2NC(=O)Nc2ccc(OCCN3CCOCC3)c3ccccc23)cc1 [doramapimod]
Procedure, shortened: as §1

bafetinib = compound: Cc1ccc(NC(=O)c2ccc(CN3CC[C@H](N(C)C)C3)c(C(F)(F)F)c2)cc1Nc1nccc(-c2cncnc2)n1 [bafetinib]
Procedure, shortened: as §1

[2] = compound: Cc1cccc(CC(=O)N2CCc3c2ccc(-c2cn(C)c4ncnc(N)c24)c3F)n1
Procedure, shortened: as §1

nilotinib = compound: Cc1cn(-c2cc(NC(=O)c3ccc(C)c(Nc4nccc(-c5cccnc5)n4)c3)cc(C(F)(F)F)c2)cn1 [nilotinib]
Procedure, shortened: as §1

[3] = compound: Cc1nc(Nc2n[nH]c3c2CN(C(=O)N[C@H](CN(C)C)c2ccccc2)C3(C)C)c2sccc2n1
Procedure, shortened: as §1

dasatinib = compound: Cc1nc(Nc2ncc(C(=O)Nc3c(C)cccc3Cl)s2)cc(N2CCN(CCO)CC2)n1 [dasatinib]
Procedure, shortened: as §1

[4] = compound: Cc1ncc(-c2ccnc(Nc3ccc(S(C)(=O)=O)cc3)n2)n1C(C)C
Procedure, shortened: as §1

[5] = compound: Cn1cc(-c2ccc3c(c2)CCN3C(=O)Cc2cccc(C(F)(F)F)c2)c2c(N)ncnc21
Procedure, shortened: as §1

quisinostat = compound: Cn1cc(CNCC2CCN(c3ncc(C(=O)NO)cn3)CC2)c2ccccc21 [quisinostat]
Procedure, shortened: as §1

tipifarnib = compound: Cn1cncc1[C@@](N)(c1ccc(Cl)cc1)c1ccc2c(c1)c(-c1cccc(Cl)c1)cc(=O)n2C [tipifarnib]
Procedure, shortened: as §1

[6] = compound: NC(=O)Nc1cc(-c2cccc(F)c2)sc1C(=O)N[C@H]1CCCNC1
Procedure, shortened: as §1

[7] = compound: NC(=O)c1cnc(N[C@@H]2CCCC[C@@H]2N)nc1Nc1cccc(-n2nccn2)c1
Procedure, shortened: as §1

[8] = compound: NC1(c2ccc(-c3nc4ccn5c(=O)[nH]nc5c4cc3-c3ccccc3)cc2)CCC1
Procedure, shortened: as §1

Measured: log2 fold change

ECHS1 (UniProt P30084)
inactive: lapatinib -0.02 | pictilisib -0.039 | crizotinib 0.025 | [1] 0 | duvelisib -0.002 | gandotinib 0.151 | tozasertib -0.001 | doramapimod -0.027 | bafetinib 0.037 | [2] -0.037 | nilotinib 0.006 | [3] -0.035 | dasatinib 0 | [4] 0.014 | [5] 0.028 | quisinostat 0.033 | tipifarnib 0.027 | [6] -0.017 | [7] -0.007 | [8] 0.03

EAPP (UniProt Q56P03)
inactive: lapatinib -0.033 | pictilisib 0.058 | crizotinib 0 | [1] 0.03 | duvelisib 0.03 | gandotinib -0.157 | tozasertib -0.09 | doramapimod -0.058 | bafetinib 0.109 | [2] 0.128 | nilotinib 0.039 | [3] 0.018 | dasatinib 0.024 | [4] -0.095 | [5] -0.001 | quisinostat 0.017 | tipifarnib 0.002 | [6] 0.021 | [7] 0.038 | [8] -0.045

EFHD2 (UniProt Q96C19)
inactive: lapatinib 0 | pictilisib 0.024 | crizotinib 0.027 | [1] -0.05 | duvelisib 0.038 | gandotinib 0.085 | tozasertib 0.003 | doramapimod 0.01 | bafetinib 0.003 | [2] -0.005 | nilotinib 0.011 | [3] -0.014 | dasatinib 0.034 | [4] 0.005 | [5] -0.004 | quisinostat 0.014 | tipifarnib 0.004 | [6] -0.025 | [7] -0.021 | [8] 0.004

DYNLRB1 (UniProt Q9NP97)
inactive: lapatinib 0.076 | pictilisib -0.011 | crizotinib -0.019 | [1] 0.123 | duvelisib 0.027 | gandotinib -0.015 | tozasertib 0.018 | doramapimod 0.02 | bafetinib 0.007 | [2] -0.009 | nilotinib 0.078 | [3] 0.007 | dasatinib 0.036 | [4] 0.107 | [5] 0.028 | quisinostat -0.033 | tipifarnib -0.016 | [6] -0.03 | [7] -0.031 | [8] 0.051

DSN1 (UniProt Q9H410)
inactive: lapatinib 0.009 | pictilisib -0.027 | crizotinib -0.016 | [1] -0.051 | duvelisib 0.004 | gandotinib 0.008 | tozasertib 0.015 | doramapimod -0.037 | bafetinib -0.026 | [2] 0.021 | nilotinib -0.006 | [3] 0.023 | dasatinib -0.022 | [4] 0.001 | [5] 0.011 | quisinostat -0.015 | tipifarnib -0.015 | [6] 0.05 | [7] 0.014 | [8] 0.031

EAF1 (UniProt Q96JC9)
inactive: lapatinib -0.045 | pictilisib 0.025 | crizotinib -0.001 | [1] -0.057 | duvelisib -0.026 | gandotinib 0.1 | tozasertib 0.056 | doramapimod 0.052 | bafetinib 0.034 | [2] 0.023 | nilotinib -0.05 | [3] 0.051 | dasatinib 0.037 | [4] -0.048 | [5] -0.01 | quisinostat -0.064 | tipifarnib 0.039 | [6] 0.049 | [7] 0.063 | [8] 0.027

EHBP1 isoform 2 (UniProt Q8NDI1)
inactive: lapatinib 0.007 | pictilisib -0.012 | crizotinib -0.041 | [1] 0.024 | duvelisib -0.022 | gandotinib -0.07 | tozasertib 0.027 | doramapimod 0.031 | bafetinib -0.105 | [2] 0.026 | nilotinib -0.005 | [3] -0.076 | dasatinib 0.057 | [4] 0.004 | [5] -0.01 | quisinostat -0.085 | tipifarnib 0.03 | [6] 0.023 | [7] 0.036 | [8] 0.011

DXO (UniProt O77932)
inactive: lapatinib -0.032 | pictilisib -0.055 | crizotinib -0.064 | [1] -0.081 | duvelisib 0.048 | gandotinib -0.061 | tozasertib -0.057 | doramapimod -0.076 | bafetinib 0.03 | [2] 0.018 | nilotinib 0.113 | [3] 0.104 | dasatinib 0.073 | [4] -0.053 | [5] 0.151 | quisinostat -0.082 | tipifarnib 0.045 | [6] 0.08 | [7] -0.048 | [8] -0.03

EHBP1L1 (UniProt Q8N3D4)
inactive: lapatinib -0.038 | pictilisib 0.005 | crizotinib -0.003 | [1] -0.063 | duvelisib 0.023 | gandotinib -0.004 | tozasertib 0.025 | doramapimod -0.002 | bafetinib -0.073 | [2] 0.051 | nilotinib 0.07 | [3] -0.024 | dasatinib -0.03 | [4] -0.019 | [5] 0.067 | quisinostat 0.003 | tipifarnib 0.019 | [6] -0.002 | [7] 0.077 | [8] 0.06

EHMT1 (UniProt Q9H9B1)
inactive: lapatinib -0.014 | pictilisib -0.005 | crizotinib -0.001 | [1] -0.062 | duvelisib -0.083 | gandotinib 0.006 | tozasertib 0.031 | doramapimod 0.005 | bafetinib -0.037 | [2] 0.063 | nilotinib -0.066 | [3] 0.036 | dasatinib -0.009 | [4] 0.018 | [5] 0.05 | quisinostat -0.058 | tipifarnib 0.024 | [6] 0.012 | [7] 0.048 | [8] -0.054

EFL1 (UniProt Q7Z2Z2)
inactive: lapatinib 0.013 | pictilisib -0.023 | crizotinib -0.024 | [1] 0.035 | duvelisib 0.026 | gandotinib -0.073 | tozasertib 0.005 | doramapimod 0.024 | bafetinib 0.012 | [2] -0.019 | nilotinib -0.01 | [3] 0.015 | dasatinib -0.013 | [4] 0.001 | [5] 0.007 | quisinostat -0.022 | tipifarnib -0.013 | [6] 0.002 | [7] 0.017 | [8] 0.02

EEA1 (UniProt Q15075)
inactive: lapatinib -0.004 | pictilisib 0.002 | crizotinib 0.018 | [1] 0.024 | duvelisib 0.003 | gandotinib 0.011 | tozasertib -0.023 | doramapimod 0 | bafetinib 0.008 | [2] -0.044 | nilotinib -0.021 | [3] 0.009 | dasatinib 0.021 | [4] 0.007 | [5] 0.014 | quisinostat 0.002 | tipifarnib 0.008 | [6] -0.008 | [7] -0.015 | [8] 0.02

ECM1 isoform 4 (UniProt Q16610)
inactive: lapatinib -0.016 | pictilisib -0.001 | crizotinib -0.033 | [1] -0.024 | duvelisib 0.003 | gandotinib 0.006 | tozasertib 0.074 | doramapimod -0.049 | bafetinib 0.047 | [2] -0.035 | nilotinib -0.007 | [3] 0.008 | dasatinib -0.025 | [4] 0.034 | [5] -0.034 | quisinostat -0.007 | tipifarnib -0.015 | [6] -0.047 | [7] 0.007 | [8] -0.016

EEF1E1 (UniProt O43324)
inactive: lapatinib -0.04 | pictilisib -0.016 | crizotinib -0.046 | [1] -0.087 | duvelisib 0.004 | gandotinib -0.09 | tozasertib 0.038 | doramapimod 0 | bafetinib -0.018 | [2] 0.095 | nilotinib -0.021 | [3] 0.004 | dasatinib -0.059 | [4] -0.016 | [5] 0.006 | quisinostat -0.039 | tipifarnib 0.03 | [6] 0.047 | [7] -0.013 | [8] -0.023

EEF1A1, A0A087WVQ9
inactive: lapatinib 0.028 | pictilisib -0.038 | crizotinib -0.02 | [1] 0.07 | duvelisib -0.021 | gandotinib 0.017 | tozasertib -0.08 | doramapimod -0.069 | bafetinib 0.068 | [2] -0.129 | nilotinib 0.124 | [3] 0.012 | dasatinib 0.006 | [4] 0.044 | [5] 0.002 | quisinostat -0.025 | tipifarnib -0.001 | [6] 0.024 | [7] 0.013 | [8] 0.016

ECI2 (UniProt O75521)
inactive: lapatinib -0.022 | pictilisib -0.017 | crizotinib 0.032 | [1] -0.002 | duvelisib 0.004 | gandotinib -0.009 | tozasertib 0.03 | doramapimod 0.007 | bafetinib -0.002 | [2] 0.042 | nilotinib 0.085 | [3] -0.013 | dasatinib 0.029 | [4] 0.017 | [5] -0.01 | quisinostat 0.023 | tipifarnib -0.071 | [6] -0.027 | [7] -0.019 | [8] -0.022
